The text below walks through data of paper PMC10223935.

Protein sequences, listed by entry. Tags and fused reporters are not part of them.
UniProt P10415: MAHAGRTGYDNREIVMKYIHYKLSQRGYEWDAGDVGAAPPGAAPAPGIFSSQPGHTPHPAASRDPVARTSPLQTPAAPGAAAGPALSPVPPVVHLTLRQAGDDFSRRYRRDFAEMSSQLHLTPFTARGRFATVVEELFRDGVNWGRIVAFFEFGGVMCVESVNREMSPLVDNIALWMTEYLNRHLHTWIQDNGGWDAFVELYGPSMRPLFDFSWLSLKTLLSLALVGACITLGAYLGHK
UniProt Q14457: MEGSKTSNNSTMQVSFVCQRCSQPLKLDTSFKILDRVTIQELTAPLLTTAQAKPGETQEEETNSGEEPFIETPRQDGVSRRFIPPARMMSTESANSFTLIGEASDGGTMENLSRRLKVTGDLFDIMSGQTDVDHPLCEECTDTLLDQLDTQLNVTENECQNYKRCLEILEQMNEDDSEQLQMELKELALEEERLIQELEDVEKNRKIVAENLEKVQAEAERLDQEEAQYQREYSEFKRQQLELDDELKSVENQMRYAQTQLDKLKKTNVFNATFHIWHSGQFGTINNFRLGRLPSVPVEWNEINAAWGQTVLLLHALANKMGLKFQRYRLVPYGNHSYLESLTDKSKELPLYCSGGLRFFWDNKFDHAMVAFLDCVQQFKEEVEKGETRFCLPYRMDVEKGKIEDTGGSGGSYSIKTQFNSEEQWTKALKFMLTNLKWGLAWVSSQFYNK

Results are given in words; binding and its absence hold for the method and conditions named. Binding seen in cells or lysates may run through a third protein. Some binding calls cover weakened binding; strength is not graded here.

The target of this assay is Bcl-2 (human (endogenous in HEK293T)) (UniProt P10415). Nature of the assay: co-IP; Beclin 1 in complex with Bcl-2 in HEK293T cells, with or without S1 or S1g-2 (Additional file 1: Fig. S3B).

Take Beclin 1 (from UniProt Q14457 1-450): the binding result is on record as “binds”.
